These are yes or no findings as the source states them, for the method shown. Binding seen in cells or lysates may run through a third protein. Binding can be weak; no strength is given.
T1: ZFP541 (mouse (endogenous in testis)) (UniProt Q0GGX2)
T1 sequence: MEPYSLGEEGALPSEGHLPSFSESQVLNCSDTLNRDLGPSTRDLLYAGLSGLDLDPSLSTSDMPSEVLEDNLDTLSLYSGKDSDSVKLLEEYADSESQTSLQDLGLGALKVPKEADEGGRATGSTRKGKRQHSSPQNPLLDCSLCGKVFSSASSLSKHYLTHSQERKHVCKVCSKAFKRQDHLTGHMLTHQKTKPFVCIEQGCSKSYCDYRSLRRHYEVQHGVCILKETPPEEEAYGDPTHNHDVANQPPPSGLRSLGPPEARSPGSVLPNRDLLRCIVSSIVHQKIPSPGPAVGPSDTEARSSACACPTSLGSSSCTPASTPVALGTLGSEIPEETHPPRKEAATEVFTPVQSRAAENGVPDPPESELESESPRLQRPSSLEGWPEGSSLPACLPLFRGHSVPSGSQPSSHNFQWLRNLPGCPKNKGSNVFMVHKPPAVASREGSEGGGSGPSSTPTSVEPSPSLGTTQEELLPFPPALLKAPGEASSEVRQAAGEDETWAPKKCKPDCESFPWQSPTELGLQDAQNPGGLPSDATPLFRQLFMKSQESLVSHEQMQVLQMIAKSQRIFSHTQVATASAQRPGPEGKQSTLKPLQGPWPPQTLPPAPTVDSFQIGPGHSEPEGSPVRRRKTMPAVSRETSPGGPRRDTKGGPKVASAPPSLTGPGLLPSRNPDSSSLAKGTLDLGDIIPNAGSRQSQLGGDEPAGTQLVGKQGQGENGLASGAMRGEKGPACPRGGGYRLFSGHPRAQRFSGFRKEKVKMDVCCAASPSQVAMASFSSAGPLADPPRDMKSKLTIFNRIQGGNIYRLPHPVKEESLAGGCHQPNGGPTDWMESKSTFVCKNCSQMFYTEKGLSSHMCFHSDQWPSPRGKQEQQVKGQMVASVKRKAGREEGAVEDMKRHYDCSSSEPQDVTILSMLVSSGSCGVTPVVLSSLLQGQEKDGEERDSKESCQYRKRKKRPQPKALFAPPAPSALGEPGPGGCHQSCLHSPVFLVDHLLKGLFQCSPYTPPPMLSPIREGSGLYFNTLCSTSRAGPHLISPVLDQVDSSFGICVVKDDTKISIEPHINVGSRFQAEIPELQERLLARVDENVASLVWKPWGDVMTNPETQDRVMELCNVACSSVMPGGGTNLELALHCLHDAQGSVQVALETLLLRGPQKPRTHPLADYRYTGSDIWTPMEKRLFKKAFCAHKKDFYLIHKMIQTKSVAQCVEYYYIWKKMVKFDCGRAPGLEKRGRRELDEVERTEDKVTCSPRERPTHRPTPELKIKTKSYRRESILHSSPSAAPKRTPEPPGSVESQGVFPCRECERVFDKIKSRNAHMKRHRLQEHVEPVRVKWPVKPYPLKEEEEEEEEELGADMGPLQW

The chains behind the UniProt entries cited, without tags or fusion partners. Where a name states a change or a piece, a line headed by the entry shows the natural chain unless it says otherwise.
UniProt Q562E2: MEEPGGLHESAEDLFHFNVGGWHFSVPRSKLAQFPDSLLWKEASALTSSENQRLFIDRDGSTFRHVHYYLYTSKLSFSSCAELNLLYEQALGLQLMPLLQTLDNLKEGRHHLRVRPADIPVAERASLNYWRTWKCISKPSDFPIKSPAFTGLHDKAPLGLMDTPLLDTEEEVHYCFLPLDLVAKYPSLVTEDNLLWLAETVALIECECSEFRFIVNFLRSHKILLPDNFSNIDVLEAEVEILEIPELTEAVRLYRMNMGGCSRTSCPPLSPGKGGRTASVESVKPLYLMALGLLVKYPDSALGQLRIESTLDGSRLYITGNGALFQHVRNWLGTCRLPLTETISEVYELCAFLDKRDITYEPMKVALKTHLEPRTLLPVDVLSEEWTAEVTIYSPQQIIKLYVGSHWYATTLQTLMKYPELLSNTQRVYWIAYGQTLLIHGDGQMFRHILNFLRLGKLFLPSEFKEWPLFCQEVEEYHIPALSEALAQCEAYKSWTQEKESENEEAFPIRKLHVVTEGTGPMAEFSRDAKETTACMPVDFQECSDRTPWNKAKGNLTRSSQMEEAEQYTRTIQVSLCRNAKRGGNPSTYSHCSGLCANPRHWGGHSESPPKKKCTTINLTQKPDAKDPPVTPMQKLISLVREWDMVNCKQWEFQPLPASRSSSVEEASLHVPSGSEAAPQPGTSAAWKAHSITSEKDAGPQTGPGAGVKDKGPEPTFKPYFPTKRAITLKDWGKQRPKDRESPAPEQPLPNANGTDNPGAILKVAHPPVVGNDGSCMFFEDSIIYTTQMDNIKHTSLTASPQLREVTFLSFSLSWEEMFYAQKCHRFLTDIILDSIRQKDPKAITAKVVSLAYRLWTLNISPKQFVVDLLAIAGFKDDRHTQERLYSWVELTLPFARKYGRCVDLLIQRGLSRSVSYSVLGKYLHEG
UniProt O09106: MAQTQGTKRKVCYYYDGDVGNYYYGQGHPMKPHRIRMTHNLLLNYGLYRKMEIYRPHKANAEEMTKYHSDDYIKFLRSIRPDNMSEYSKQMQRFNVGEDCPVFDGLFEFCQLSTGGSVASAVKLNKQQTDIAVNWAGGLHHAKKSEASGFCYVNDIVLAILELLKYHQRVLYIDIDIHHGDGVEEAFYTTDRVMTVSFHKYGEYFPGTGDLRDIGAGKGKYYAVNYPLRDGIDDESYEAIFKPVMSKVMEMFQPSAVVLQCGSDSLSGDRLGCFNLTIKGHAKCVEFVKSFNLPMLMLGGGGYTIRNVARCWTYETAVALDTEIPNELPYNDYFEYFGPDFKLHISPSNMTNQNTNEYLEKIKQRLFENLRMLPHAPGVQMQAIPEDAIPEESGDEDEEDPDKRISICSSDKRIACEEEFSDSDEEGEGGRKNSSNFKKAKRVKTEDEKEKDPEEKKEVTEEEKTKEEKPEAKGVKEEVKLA
UniProt P70288: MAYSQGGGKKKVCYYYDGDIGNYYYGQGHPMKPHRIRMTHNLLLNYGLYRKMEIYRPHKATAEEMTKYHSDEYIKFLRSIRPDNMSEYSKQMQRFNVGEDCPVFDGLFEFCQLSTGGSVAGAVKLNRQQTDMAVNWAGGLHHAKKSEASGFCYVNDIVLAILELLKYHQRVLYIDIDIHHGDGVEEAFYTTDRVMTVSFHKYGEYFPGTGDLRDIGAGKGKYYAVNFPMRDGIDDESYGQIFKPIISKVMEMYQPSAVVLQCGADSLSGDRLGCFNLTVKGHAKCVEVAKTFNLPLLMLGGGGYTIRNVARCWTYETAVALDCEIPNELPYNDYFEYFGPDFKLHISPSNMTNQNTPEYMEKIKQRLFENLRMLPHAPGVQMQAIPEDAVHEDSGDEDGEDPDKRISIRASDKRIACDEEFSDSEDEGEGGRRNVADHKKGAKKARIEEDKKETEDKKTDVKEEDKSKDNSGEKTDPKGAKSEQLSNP


Experiments:
[1] = molecular target: KCTD19 (mouse (endogenous in testis)) (UniProt Q562E2); assay: co-IP; endogenous ZFP541 or KCTD19 immunoprecipitated with affinity-purified rabbit antibodies crosslinked to protein A-Dynabeads from chromatin extracts of WT mouse testes; beads washed with low salt extraction buffer; immunoblot
[2] = molecular target: T1, ZFP541 (mouse (endogenous in testis)); assay: as above

| binding [1] | binding [2] | Molecule |
| --- | --- | --- |
| binds |  | HDAC1 (from UniProt O09106 1-482) (enzyme) |
| binds |  | HDAC2 (from UniProt P70288 1-488) (enzyme) |
|  | binds | KCTD19 (from UniProt Q562E2-2) |
| binds |  | ZFP541 (protein, UniProt Q0GGX2 1-1363) MEPYSLGEEGALPSEGHLPSFSESQVLNCSDTLNRDLGPSTRDLLYAGLSGLDLDPSLSTSDMPSEVLEDNLDTLSLYSGKDSDSVKLLEEYADSESQTSLQDLGLGALKVPKEADEGGRATGSTRKGKRQHSSPQNPLLDCSLCGKVFSSASSLSKHYLTHSQERKHVCKVCSKAFKRQDHLTGHMLTHQKTKPFVCIEQGCSKSYCDYRSLRRHYEVQHGVCILKETPPEEEAYGDPTHNHDVANQPPPSGLRSLGPPEARSPGSVLPNRDLLRCIVSSIVHQKIPSPGPAVGPSDTEARSSACACPTSLGSSSCTPASTPVALGTLGSEIPEETHPPRKEAATEVFTPVQSRAAENGVPDPPESELESESPRLQRPSSLEGWPEGSSLPACLPLFRGHSVPSGSQPSSHNFQWLRNLPGCPKNKGSNVFMVHKPPAVASREGSEGGGSGPSSTPTSVEPSPSLGTTQEELLPFPPALLKAPGEASSEVRQAAGEDETWAPKKCKPDCESFPWQSPTELGLQDAQNPGGLPSDATPLFRQLFMKSQESLVSHEQMQVLQMIAKSQRIFSHTQVATASAQRPGPEGKQSTLKPLQGPWPPQTLPPAPTVDSFQIGPGHSEPEGSPVRRRKTMPAVSRETSPGGPRRDTKGGPKVASAPPSLTGPGLLPSRNPDSSSLAKGTLDLGDIIPNAGSRQSQLGGDEPAGTQLVGKQGQGENGLASGAMRGEKGPACPRGGGYRLFSGHPRAQRFSGFRKEKVKMDVCCAASPSQVAMASFSSAGPLADPPRDMKSKLTIFNRIQGGNIYRLPHPVKEESLAGGCHQPNGGPTDWMESKSTFVCKNCSQMFYTEKGLSSHMCFHSDQWPSPRGKQEQQVKGQMVASVKRKAGREEGAVEDMKRHYDCSSSEPQDVTILSMLVSSGSCGVTPVVLSSLLQGQEKDGEERDSKESCQYRKRKKRPQPKALFAPPAPSALGEPGPGGCHQSCLHSPVFLVDHLLKGLFQCSPYTPPPMLSPIREGSGLYFNTLCSTSRAGPHLISPVLDQVDSSFGICVVKDDTKISIEPHINVGSRFQAEIPELQERLLARVDENVASLVWKPWGDVMTNPETQDRVMELCNVACSSVMPGGGTNLELALHCLHDAQGSVQVALETLLLRGPQKPRTHPLADYRYTGSDIWTPMEKRLFKKAFCAHKKDFYLIHKMIQTKSVAQCVEYYYIWKKMVKFDCGRAPGLEKRGRRELDEVERTEDKVTCSPRERPTHRPTPELKIKTKSYRRESILHSSPSAAPKRTPEPPGSVESQGVFPCRECERVFDKIKSRNAHMKRHRLQEHVEPVRVKWPVKPYPLKEEEEEEEEELGADMGPLQW |
| binds |  | terminal deoxynucleotidyltransferase-interacting factor 1 (TDIF1) (protein, UniProt Q99LB0 1-328) MGATGDTEQPRGPGGAERGGLELGDAGAAGQPVLTNPWNIMIKHRQVQRRGRRSQMTTSFTDPAISMDLLRAVLQPSINEEIQGVFNKYMKFFQKAALNVRDNVGEEVDAEQLIQEACRSCLEQAKLLFSDGEKVIPRLAHELPGIKRGRQAEEESHRGSPIPKKRKGRPPGHVLSNDRAAAGMVWKQKSCEPIRREGPKWDPARLNESTTFVLGSRANKALGMGGTRGRIYIKHPHLFKYAADPQDKHWLAEQHHMRATGGKMAYLLIEEDIRDLAASDDYRGCLDLKLEELKSFVLPSWMVEKMRKYMETLRTENEHRAAEAPPQT |

— article PMC8169937
